From US6140490 come the findings set out here.

Chains of the proteins cited; added tags and fusions are not shown. A line that says so, or that is headed by a name, gives the form on record, which may keep a tag or linker.
Complement C5 (Homo sapiens), one chain, as listed by the source, chain 2 of 2: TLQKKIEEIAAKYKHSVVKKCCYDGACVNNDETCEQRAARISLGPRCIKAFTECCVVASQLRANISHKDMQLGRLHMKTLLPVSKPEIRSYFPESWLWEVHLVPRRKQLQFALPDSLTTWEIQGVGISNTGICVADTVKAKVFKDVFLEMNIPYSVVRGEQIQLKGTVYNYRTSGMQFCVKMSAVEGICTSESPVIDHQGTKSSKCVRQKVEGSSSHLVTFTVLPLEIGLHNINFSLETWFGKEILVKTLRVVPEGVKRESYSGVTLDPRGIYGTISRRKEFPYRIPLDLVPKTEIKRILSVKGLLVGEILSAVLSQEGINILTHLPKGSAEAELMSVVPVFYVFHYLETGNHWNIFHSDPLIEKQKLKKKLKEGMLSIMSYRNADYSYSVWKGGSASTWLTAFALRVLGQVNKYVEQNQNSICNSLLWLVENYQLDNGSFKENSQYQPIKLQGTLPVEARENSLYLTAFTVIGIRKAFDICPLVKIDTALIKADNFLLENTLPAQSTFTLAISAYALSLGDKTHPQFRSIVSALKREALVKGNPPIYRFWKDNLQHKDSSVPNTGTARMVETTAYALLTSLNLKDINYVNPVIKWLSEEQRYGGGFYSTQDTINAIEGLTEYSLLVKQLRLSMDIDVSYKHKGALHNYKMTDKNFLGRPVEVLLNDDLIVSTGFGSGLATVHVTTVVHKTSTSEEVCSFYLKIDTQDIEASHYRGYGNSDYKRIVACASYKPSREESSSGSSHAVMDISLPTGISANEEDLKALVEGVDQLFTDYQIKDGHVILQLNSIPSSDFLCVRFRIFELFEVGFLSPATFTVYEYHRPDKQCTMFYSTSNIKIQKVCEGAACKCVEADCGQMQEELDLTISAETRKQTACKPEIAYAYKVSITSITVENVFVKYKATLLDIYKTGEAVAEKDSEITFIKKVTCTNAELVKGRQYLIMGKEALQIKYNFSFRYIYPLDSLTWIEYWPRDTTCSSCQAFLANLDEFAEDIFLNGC
Complement C5 (Rattus norvegicus), one chain, as listed by the source, chain 2 of 2: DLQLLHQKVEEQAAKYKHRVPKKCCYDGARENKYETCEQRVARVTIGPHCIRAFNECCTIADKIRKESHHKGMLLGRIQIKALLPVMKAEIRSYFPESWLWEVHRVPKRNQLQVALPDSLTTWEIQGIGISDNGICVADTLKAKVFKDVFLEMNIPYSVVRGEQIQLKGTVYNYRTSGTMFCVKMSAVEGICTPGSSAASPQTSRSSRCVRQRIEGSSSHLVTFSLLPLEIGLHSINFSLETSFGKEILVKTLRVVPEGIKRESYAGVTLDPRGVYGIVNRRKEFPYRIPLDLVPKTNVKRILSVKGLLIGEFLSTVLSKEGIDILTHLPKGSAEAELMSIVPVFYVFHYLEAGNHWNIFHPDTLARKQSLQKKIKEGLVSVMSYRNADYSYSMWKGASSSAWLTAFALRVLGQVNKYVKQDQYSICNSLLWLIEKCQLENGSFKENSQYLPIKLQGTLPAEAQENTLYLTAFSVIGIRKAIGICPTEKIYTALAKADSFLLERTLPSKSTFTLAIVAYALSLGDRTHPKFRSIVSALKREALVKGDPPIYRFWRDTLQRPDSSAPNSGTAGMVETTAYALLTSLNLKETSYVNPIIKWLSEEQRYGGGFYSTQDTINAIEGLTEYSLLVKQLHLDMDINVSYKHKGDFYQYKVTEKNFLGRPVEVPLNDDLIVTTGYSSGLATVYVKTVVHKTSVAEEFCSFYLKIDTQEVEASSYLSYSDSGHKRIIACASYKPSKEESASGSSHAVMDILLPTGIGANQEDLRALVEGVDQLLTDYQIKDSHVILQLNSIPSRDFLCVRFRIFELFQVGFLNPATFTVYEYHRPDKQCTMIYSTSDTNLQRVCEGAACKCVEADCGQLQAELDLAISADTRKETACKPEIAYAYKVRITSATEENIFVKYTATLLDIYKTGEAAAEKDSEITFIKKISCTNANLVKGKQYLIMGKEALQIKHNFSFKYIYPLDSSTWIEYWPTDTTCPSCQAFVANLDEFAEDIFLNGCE
Complement C5 (Homo sapiens), one chain, as listed by the source, chain 1 of 2: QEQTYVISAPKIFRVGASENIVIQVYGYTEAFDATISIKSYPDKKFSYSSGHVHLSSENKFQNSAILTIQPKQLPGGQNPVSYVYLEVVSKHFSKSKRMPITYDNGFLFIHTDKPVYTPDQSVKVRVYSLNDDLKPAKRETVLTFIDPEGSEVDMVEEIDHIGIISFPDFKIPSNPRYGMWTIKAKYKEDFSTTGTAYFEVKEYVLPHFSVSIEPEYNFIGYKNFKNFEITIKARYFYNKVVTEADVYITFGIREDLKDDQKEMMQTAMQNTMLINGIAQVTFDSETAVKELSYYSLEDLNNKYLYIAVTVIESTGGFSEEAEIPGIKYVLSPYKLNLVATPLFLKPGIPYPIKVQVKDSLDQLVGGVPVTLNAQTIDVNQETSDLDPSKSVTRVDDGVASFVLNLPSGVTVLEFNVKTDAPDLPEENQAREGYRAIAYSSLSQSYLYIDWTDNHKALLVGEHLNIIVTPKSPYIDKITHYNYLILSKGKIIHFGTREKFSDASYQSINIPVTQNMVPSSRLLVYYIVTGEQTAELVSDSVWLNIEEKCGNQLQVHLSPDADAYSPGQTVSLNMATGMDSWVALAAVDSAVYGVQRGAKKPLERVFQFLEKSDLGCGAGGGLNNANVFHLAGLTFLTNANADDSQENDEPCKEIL
Complement C5 (Rattus norvegicus), one chain, as listed by the source, chain 1 of 2: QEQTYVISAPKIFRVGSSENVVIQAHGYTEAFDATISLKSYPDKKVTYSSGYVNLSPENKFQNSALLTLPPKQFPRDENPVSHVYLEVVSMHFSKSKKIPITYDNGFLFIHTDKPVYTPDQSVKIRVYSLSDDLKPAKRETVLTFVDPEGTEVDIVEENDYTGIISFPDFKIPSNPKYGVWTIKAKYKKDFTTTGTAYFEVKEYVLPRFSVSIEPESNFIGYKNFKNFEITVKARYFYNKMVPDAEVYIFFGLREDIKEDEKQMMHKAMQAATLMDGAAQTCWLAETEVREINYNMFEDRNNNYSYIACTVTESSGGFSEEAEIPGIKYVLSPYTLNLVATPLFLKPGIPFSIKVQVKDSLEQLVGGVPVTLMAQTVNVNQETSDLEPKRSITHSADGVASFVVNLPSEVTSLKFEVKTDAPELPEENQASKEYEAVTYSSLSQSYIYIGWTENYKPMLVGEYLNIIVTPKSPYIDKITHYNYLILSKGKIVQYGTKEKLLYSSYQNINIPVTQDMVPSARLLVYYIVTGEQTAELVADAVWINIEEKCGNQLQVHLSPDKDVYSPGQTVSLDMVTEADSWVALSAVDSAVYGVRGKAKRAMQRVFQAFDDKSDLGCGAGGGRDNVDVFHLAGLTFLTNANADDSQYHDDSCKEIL

For at least one entry, the source does not settle the construct or the ends of the probe.

The test system of the first data set is Complement C1q (Homo sapiens). In words: SELEX. Particulars: 2'-F C and U; MgPBS, 37 C; cloned from evolved pool; purified native protein; protein details: Quidel.
Turning to “GGGAGGACGAUGCGGAUAAGUGCGAGUGUAUGAGGUGCGUGUGGUCAGACGACUCGCCCGA [31c1qb16c]”, the selection result was “selected”.

Consider “GGGAGGACGAUGCGGAGCUGAUGAAGAUGAUCUCUGACCCCUCAGACGACUCGCCCGA [44c1qb6oc]”, for which the selection result was “selected”.

As for “GGGAGGACGAUGCGGCAUUGUCCAAGUUUAGCUGUCCGUGCUCGUCAGACGACUCGCCCGA [c1qrd17-64c]”, the selection result is on record as “selected”.

Consider “GGGAGGACGAUGCGGUCCAAUUCGUUCUCAUGCCUUUCCGCUCGUCAGACGACUCGCCCGA [08.C1Q.147c]”, for which the selection result is recorded as “selected”.

In the case of “GGGAGGACGAUGCGGUUCCACAUCGCAAUUUUCUGUCCGUGCUCGUCAGACGACUCGCCCGA [c1qrd17-53c]”, the selection result was “selected”.

Consider “GGGAGGACGAUGCGGAUUUCGGUCGACUAAAUAGGGGUGGCUCGUCAGACGACUCGCCCGA [C1Q-A22'C]”, for which the selection result is listed as “selected”.

“GGGAGGACGAUGCGGCAUAGUCCGGAUACUAGUCACCAGCCUCGUAGACGACUCGCCCGA [46C1Qb64c]”: the selection result is reported as “selected”.

On to “GGGAGGACGAUGCGGUCCACAUCGAAUUUUCUGUCCGUUCGUCAGACGACUCGCCCGA [26c1Qb4c]”, for which the selection result is recorded as “selected”.

On to “GGGAGGACGAUGCGGUCCGCAAGUUUAGCACUCACUGCCUCGUCAGACGACUCGCCCGA [11.C1Q.152c]”, for which the selection result was “selected”.

Regarding “GGGAGGACGAUGCGGAGCUGAAAGCGAAGUGCGAGGUGUUUGGUCCAGACGACUCGCCCGA [06.C1Q.143c]”, the selection result is “selected”.

Consider “GGGAGGACGAUGCGGUUCCGACAUCGAUGUUGCUCUUCGCCUCGUCAGACGACUCGCCCGA [c1qrd17-56c]”, for which the selection result is “selected”.

On to “GGGAGGACGAUGCGGAUCUGAGGAGCUCUUCGUCGUGCUGAGGGUCAGACGACUCGCCCGA [28c1Qb20c]”, for which the selection result was “selected”.

For the sequence “GGAGGACGAUGCGGGGUUCCUCAAUGACGAUCUCCAUUCCGCUCGUCAGACGACUCGCCCAG [C1q10c]”, the selection result is “selected”.

“GGGAGGACGAUGCGGCAUCGUAAACAAUUUGUUCCAUCUCCGCCUCAGACGACUCGCCCGA [C1Q-A4'C]”: the selection result is on record as “selected”.

For “GGGAGGACGAUGCGGCAGUGAAAGGCGAGUUUUCUCCUCUCCCUCAGACGACUCGCCCGA [C115c]”, the selection result is recorded as “selected”.

For “GGGAGGACGAUGCGGUUCCGACGAUUCUCCAAUCUUCUCUCUGGUCAGACGACUCGCCCGA [38c1qb45c]”, the selection result was “selected”.

For the sequence “GGGAGGACGAUGCGGAGUUCCCAGCCGCCUUGAUUUCUCCGUGGUCAGACGACUCGCCCGA [24c1qb51c]”, the selection result is given as “selected”.

The data set is the same for the next values; noted with them: 2'-F C and U; selected sequence, ranked at 0.1 and 0.5 nM C1q; purified native protein; protein details: Quidel.
“GGGAGGACGAUGCGGAGAGGCUCAGACGACUCGCCCGACCACGGAUGCGACCUCAGACGACUCGCCCGA [03.C1Q.137c]”: the selection result is on record as “selected”.

Regarding “GGGAGGACGAUGCGGAGCAGUUGAAAGACGUGCGUUUCGUUUGGUCAGACGACUCGCCCGA [C1Q-A28'C]”, the selection result is recorded as “selected”.

“GGGAGGACGAUGCGGAGAUGGAUGGAAGUGCUAGUCUUUCUGGGGUCAGACGACUCGCCCGA [C1B119c]”: the selection result is given as “selected”.

On to “GGGAGGACGAUGCGGAAACCAAAUCGUCGAUCUUUCCACCGUCGUCAGACGACUCGCCCGA [C1B100]”, for which the selection result is listed as “selected”.

In the case of “GGGAGGACGAUGCGGAACAGACGACUCGCGCAACUACUCUGACGUCAGACGACUCGCCCGA [c110c]”, the selection result is given as “selected”.

Consider “GGGAGGACGAUGCGGAGACACUAAACAAAUUGGCGACCUGACCGUCAGACGACUCGCCCGA [C1Q-A7'C]”, for which the selection result is reported as “selected”.

As to “GGGAGGACGAUGCGGACAAGACGAGAACGGGGGGAGCUACCUGGCCAGACGACUCGCCCGA [c1qrd17-43c]”, the selection result was “selected”.

Another data set has as its system Complement C5 (Homo sapiens). In words: SELEX. Particulars: 2'-F C and U; Group I; purified native protein; protein details: Quidel.
Regarding “GGGAGGACGAUGCGGUCUGCUACGCUGAGUGGCUGUUUACCUUCGUCAGACGACUCGCCCGA [g7]”, the selection result was “selected”.

For the sequence “GGGAGGACGAUGCGGUCGGAUGCGCCGAGUCUCCGUUUACCUUCGUCAGACGACUCGCCCGA [h1]”, the selection result is “selected”.

Still in this data set, the particulars now being: 2'-F C and U; Group II; purified native protein; protein details: Quidel.
As to “GGGAGGACGAUGCGGUGAGCGCGUAUAGCGGUUUCGAUAGAGCCUCAGACGACUCGCCCGA [h2]”, the selection result is “selected”.

As for “GGGAGGACGAUGCGGUGAGCGUGGCAAACGGUUUCGAUAGAGCCUCAGACGACUCGCCCGA [h6]”, the selection result is listed as “selected”.

With “GGGAGGACGAUGCGGUGAGCGUGUAAAACGGUUUCGAUAGAGCCUCAGACGACUCGCCCGA [h8]”, the selection result was “selected”.

In the case of “GGGAGGACGAUGCGGAGGGUUCUUUUCAUCUUCUUUCUUUCCCCUCAGACGACUCGCCCGA [e8x]”, the selection result is “selected”.

In the case of “GGGAGGACGAUGCGGGAGUUGUUCGGCAUUUAGAUCUCCGCUCCCUCAGACGACUCGCCCGA [g9]”, the selection result is on record as “selected”.

“GGGAGGACGAUGCGGGCAAAGUUCGGCAUUCAGAUCUCCAUGCCCUCAGACGACUCGCCCGA [f7]”: the selection result was “selected”.

Take “GGGAGGACGAUGCGGUUUCGAUAGAGACUUACAGUUGAGCGCGGUCAGACGACUCGCCCGA [f4]”: the selection result is given as “selected”.

Turning to “GGGAGGACGAUGCGGGUAUCUUAUCUUGUUUUCGUUUUUCUGCCCUCAGACGAUCGCCCGA [d6]”, the selection result is reported as “selected”.

For “GGGAGGACGAUGCUGUUCAGCAUUCAGAUCUUCACGUGUGUCAGACGACUCGCCCGA [d9]”, the selection result was “selected”.

Turning to “GGGAGGACGAUGCGGUGAGCGCGUAUAGCGGUUUCGAUAGAGCUGCGUCAGACGACUCGCCCGA [f11]”, the selection result is on record as “selected”.

In the case of “GGGAGGACGAUGCGGUGAGCGUGGCAAACGGUUUCGAUAGAGCCUCAGACGACUCGCCCGA [f9]”, the selection result is “selected”.

As for “GGGAGGACGAUGCGGACGAAGAAGGUGGUGGAGGAGUUUCGUGCUCAGACGACUCGCCCGA [h11]”, the selection result was “selected”.

On to “GGGAGGACGAUGCGGGGCUUCUCACAUAUUCUUCUCUUUCCCCGUCAGACGACUCGCCCGA [E9c]”, for which the selection result is “selected”.

As to “GGAGGGCGAUGGGGUGAGCGUGUAAAAGGUUGCGAUAGAGCCUCAGACGACUCGCCCGA [J1c]”, the selection result was “selected”.

Consider “GGGAGGACGAUGCGGUGUUCACCAUUCAGAUCUUCACGUGUCGUCAGACGACUCGCCCGA [f6]”, for which the selection result is recorded as “selected”.

Take “GGGAGGACGAUGCGGUGGGCGUCAGCAUUUCGAUCUUCGGCACCUCAGACGACUCGCCCGA [C12]”: the selection result is recorded as “selected”.

Regarding “GGGAGGACGAUGCGGUUUGUGAUUUGGAAGUGGGGGGGAUAGGGUCAGACGACUCGCCCGA [d3]”, the selection result is on record as “selected”.

For the sequence “GGGAGGACGAUGCGGACGAAGAAGGGGGUGGAGGAGUUUCGUGCUCAGACGACUCGCCCGA [g10]”, the selection result is “selected”.

The subject of another data set is Complement C5 (Rattus norvegicus). The data set is described as follows: SELEX. As to conditions: 2'-F C and U; purified native protein.
“GGGAGGACGAUGCGGCGACUACUGGGAGAGUACGCGAUGUGUGCCCAGACGACUCGCCCGA [RtC5-146]”: the selection result is listed as “selected”.

Regarding “GGGAGGACGAUGCGGCGAUUACUGGGACAGACUCGCGAUGUGAGCUCAGACGACUCGCCCGA [RtC5-39]”, the selection result is “selected”.

For the sequence “GGGAGGACGAUGCGGCGACUACUGGGAAGGGUCGCGAAGUGAGCCCAGACGACUCGCCCGA [RtC5-69]”, the selection result is “selected”.

“GGGAGGACGAUGCGGCGAUUACUGGGACGGACUCGCGAUGUGAGCCCAGACGACUCGCCCGA [RtC5-116]”: the selection result is reported as “selected”.
